{"source": "paper PMC8577994", "about": "(Cell Reports, 2021)", "tested_on": "SARS-CoV-2", "test": "microbe, parasite or virus in culture", "conditions": "Severe acute respiratory syndrome coronavirus 2, A549-ACE2, read-out: EC50, SARS-CoV-2"}
{"smiles": "CCC(CC)COC(=O)[C@H](C)N[P@](=O)(OC[C@H]1O[C@@](C#N)(c2ccc3c(N)ncnn23)[C@H](O)[C@@H]1O)Oc1ccccc1", "note": "[Remdesivir]", "values": [{"measurement": "EC50", "value": 79.2, "unit": "nM"}]}
